Measured values reported in doi:10.1101/799536.
No constants are given. Whether binding was seen depends on the method and setting. In cells and extracts the contact can be indirect. Here binding means that the protein was enriched with, or labelled near, the bait; the list need not be complete.

The chains behind the UniProt entries cited, without tags or fusion partners.
UniProt Q924A2: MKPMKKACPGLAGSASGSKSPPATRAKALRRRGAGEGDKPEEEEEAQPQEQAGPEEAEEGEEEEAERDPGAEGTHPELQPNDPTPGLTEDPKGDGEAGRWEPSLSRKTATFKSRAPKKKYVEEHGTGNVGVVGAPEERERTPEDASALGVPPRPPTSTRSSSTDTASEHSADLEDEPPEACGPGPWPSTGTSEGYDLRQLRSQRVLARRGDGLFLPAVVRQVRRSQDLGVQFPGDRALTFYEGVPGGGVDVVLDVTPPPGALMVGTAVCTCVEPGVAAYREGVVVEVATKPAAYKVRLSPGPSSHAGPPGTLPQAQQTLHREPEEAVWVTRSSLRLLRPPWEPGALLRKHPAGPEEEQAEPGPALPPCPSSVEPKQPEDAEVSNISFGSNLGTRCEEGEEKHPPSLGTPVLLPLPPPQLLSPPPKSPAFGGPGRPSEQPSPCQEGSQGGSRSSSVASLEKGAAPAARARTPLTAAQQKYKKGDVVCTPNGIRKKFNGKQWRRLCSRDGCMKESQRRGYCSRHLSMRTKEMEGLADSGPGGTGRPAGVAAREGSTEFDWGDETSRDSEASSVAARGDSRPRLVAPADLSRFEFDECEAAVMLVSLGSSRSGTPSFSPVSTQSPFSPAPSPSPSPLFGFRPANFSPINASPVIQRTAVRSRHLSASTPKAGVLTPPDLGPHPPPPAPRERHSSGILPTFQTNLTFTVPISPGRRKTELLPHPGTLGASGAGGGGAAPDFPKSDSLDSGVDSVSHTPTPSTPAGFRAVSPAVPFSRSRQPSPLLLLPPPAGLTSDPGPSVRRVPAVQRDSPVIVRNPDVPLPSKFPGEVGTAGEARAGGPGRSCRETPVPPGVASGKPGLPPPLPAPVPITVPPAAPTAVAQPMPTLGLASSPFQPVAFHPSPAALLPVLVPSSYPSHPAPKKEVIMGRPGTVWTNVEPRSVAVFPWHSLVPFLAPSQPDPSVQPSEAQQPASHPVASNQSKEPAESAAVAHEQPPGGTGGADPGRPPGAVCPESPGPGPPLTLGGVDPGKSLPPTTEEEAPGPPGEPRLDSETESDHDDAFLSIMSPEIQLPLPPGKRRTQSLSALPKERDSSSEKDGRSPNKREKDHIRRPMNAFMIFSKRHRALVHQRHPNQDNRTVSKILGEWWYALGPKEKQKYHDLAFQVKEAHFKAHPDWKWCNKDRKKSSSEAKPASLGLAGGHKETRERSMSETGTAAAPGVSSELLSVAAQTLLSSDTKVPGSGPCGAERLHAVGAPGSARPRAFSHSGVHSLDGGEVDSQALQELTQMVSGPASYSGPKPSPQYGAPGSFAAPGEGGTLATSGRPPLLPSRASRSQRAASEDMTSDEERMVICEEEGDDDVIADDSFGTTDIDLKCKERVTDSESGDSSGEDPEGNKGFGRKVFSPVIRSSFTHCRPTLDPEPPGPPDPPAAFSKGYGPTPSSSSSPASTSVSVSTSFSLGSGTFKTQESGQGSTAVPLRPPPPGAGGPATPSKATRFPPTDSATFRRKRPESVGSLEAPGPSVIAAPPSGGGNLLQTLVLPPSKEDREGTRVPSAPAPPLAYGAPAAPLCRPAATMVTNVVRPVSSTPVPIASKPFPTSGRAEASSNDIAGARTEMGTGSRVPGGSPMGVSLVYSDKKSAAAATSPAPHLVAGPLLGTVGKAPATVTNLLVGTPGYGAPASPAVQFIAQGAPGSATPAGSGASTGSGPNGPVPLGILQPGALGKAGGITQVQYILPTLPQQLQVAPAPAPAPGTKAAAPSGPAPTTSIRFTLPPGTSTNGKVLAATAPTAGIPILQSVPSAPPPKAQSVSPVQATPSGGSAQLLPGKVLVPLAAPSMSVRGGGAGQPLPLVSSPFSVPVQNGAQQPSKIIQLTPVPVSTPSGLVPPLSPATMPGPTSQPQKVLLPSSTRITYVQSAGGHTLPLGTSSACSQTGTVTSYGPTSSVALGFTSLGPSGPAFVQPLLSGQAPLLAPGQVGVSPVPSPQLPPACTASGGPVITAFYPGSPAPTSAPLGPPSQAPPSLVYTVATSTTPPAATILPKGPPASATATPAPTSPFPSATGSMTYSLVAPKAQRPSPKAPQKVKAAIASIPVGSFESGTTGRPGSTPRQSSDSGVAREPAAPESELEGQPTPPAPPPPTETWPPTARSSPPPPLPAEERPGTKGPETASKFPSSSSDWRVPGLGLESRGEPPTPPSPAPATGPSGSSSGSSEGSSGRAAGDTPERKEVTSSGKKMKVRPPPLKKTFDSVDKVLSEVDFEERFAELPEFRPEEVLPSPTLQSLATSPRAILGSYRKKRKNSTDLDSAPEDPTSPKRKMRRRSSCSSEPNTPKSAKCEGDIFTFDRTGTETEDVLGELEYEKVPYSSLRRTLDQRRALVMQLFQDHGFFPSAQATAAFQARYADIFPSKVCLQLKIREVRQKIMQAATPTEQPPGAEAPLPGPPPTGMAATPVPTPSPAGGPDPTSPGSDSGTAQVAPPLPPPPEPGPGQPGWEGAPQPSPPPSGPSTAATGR
UniProt A2BH40: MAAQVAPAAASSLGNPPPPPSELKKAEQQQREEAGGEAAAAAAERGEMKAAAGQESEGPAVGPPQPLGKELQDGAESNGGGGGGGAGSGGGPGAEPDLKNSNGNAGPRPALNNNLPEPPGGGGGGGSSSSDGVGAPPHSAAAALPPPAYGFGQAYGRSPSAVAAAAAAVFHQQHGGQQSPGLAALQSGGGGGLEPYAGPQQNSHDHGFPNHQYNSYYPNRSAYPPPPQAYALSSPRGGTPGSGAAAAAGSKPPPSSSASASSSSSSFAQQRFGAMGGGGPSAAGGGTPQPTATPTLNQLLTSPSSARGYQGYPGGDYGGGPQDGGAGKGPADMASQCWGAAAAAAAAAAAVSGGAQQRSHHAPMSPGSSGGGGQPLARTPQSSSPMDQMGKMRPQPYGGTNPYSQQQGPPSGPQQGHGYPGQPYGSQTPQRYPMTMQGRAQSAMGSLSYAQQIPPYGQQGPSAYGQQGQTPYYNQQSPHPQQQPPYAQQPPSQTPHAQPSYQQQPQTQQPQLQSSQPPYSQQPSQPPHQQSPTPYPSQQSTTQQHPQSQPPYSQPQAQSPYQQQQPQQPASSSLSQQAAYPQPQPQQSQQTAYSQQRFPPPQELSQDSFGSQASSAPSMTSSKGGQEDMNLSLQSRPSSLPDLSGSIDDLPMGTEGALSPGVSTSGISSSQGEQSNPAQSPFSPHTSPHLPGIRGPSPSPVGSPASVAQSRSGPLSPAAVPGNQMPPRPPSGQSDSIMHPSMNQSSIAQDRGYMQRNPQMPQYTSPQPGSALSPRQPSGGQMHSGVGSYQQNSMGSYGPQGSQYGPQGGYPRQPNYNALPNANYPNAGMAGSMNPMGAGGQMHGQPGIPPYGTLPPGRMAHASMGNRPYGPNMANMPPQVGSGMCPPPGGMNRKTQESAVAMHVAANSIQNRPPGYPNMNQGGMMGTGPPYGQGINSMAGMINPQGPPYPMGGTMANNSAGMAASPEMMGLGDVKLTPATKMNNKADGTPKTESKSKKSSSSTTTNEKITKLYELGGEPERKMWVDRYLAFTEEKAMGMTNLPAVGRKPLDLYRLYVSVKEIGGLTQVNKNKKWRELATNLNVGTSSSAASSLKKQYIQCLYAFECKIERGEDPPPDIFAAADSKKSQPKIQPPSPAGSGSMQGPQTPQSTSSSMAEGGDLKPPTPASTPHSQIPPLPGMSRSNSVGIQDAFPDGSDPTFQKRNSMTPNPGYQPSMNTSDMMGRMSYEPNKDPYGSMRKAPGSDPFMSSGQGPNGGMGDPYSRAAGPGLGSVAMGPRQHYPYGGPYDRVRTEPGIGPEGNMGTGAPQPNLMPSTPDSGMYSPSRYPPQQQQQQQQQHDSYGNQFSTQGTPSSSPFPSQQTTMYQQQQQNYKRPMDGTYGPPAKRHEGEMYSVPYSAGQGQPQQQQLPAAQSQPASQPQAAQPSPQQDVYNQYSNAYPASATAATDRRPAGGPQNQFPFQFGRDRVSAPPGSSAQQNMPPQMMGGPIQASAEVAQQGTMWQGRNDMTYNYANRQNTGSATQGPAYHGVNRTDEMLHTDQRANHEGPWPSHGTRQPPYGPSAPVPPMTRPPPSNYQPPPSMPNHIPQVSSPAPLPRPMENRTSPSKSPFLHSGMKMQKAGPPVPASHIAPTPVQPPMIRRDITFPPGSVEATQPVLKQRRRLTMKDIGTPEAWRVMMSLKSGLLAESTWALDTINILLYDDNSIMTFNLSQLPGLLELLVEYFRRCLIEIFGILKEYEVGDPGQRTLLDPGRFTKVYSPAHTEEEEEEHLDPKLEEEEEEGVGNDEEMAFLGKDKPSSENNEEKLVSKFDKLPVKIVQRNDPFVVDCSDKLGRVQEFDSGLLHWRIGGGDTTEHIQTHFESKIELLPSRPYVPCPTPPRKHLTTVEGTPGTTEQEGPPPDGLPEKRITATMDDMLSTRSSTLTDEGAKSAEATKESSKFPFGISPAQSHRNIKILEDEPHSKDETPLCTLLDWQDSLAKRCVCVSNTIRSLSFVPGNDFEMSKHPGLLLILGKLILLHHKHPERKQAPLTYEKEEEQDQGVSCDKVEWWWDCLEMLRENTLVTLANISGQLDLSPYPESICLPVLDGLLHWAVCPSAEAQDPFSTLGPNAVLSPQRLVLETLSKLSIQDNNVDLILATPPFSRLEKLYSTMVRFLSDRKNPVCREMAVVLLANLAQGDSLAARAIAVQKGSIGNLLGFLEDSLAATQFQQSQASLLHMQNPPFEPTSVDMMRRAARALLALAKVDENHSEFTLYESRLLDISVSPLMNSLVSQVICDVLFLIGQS
UniProt Q6DIC0: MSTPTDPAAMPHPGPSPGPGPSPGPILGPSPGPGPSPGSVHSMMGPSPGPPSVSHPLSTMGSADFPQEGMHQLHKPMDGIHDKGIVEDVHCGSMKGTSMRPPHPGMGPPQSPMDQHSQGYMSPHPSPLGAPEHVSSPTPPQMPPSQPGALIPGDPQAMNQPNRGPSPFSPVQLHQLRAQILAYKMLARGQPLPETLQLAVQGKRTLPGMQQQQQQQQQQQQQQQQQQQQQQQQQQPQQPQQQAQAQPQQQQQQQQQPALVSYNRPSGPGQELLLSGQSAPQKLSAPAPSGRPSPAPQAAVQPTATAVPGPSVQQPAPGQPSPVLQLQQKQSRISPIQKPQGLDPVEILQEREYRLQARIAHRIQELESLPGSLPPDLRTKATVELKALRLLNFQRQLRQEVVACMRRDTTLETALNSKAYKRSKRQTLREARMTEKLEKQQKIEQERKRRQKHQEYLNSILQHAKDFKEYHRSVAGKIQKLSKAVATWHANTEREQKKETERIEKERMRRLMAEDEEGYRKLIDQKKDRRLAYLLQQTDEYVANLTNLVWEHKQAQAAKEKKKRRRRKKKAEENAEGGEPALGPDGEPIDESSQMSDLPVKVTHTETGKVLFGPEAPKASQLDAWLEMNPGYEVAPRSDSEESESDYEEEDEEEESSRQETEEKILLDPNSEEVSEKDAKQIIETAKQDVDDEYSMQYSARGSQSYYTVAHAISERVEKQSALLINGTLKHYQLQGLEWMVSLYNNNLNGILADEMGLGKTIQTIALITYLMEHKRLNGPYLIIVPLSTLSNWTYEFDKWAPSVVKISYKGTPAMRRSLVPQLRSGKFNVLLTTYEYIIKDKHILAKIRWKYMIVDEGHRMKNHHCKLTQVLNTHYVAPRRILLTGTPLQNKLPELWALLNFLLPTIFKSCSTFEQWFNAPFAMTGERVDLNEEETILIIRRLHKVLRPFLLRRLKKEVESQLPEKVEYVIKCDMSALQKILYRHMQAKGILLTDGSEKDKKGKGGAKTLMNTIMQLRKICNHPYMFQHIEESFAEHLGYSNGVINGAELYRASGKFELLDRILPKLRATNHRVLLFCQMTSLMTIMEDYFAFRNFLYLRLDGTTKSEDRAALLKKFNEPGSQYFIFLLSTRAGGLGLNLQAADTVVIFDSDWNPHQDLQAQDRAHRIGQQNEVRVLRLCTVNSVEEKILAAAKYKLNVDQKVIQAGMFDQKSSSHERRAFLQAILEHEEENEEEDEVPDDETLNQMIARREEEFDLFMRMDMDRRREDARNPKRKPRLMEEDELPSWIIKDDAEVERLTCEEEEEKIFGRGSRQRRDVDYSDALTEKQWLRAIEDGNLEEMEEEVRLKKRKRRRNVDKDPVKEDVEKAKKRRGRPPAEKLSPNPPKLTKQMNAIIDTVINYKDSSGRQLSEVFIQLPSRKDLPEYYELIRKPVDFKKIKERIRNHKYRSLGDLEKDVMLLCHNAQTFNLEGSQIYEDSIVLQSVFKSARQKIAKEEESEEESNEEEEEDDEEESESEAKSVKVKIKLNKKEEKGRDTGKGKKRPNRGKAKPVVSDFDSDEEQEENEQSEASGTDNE

B1: ACLY (protein, UniProt Q91V92 1-1091)
chain: MSAKAISEQTGKELLYKYICTTSAIQNRFKYARVTPDTDWAHLLQDHPWLLSQSLVVKPDQLIKRRGKLGLVGVNLSLDGVKSWLKPRLGHEATVGKAKGFLKNFLIEPFVPHSQAEEFYVCIYATREGDYVLFHHEGGVDVGDVDAKAQKLLVGVDEKLNTEDIKRHLLVHAPEDKKEVLASFISGLFNFYEDLYFTYLEINPLVVTKDGVYILDLAAKVDATADYICKVKWGDIEFPPPFGREAYPEEAYIADLDAKSGASLKLTLLNPKGRIWTMVAGGGASVVYSDTICDLGGVNELANYGEYSGAPSEQQTYDYAKTILSLMTREKHPEGKILIIGGSIANFTNVAATFKGIVRAIRDYQGPLKEHEVTIFVRRGGPNYQEGLRVMGEVGKTTGIPIHVFGTETHMTAIVGMALGHRPIPNQPPTAAHTANFLLNASGSTSTPAPSRTASFSESRADEVAPAKKAKPAMPQGKSATLFSRHTKAIVWGMQTRAVQGMLDFDYVCSRDEPSVAAMVYPFTGDHKQKFYWGHKEILIPVFKNMADAMKKHPEVDVLINFASLRSAYDSTMETMNYAQIRTIAIIAEGIPEALTRKLIKKADQKGVTIIGPATVGGIKPGCFKIGNTGGMLDNILASKLYRPGSVAYVSRSGGMSNELNNIISRTTDGVYEGVAIGGDRYPGSTFMDHVLRYQDTPGVKMIVVLGEIGGTEEYKICRGIKEGRLTKPVVCWCIGTCATMFSSEVQFGHAGACANQASETAVAKNQALKEAGVFVPRSFDELGEIIQSVYEDLVAKGAIVPAQEVPPPTVPMDYSWARELGLIRKPASFMTSICDERGQELIYAGMPITEVFKEEMGIGGVLGLLWFQRRLPKYSCQFIEMCLMVTADHGPAVSGAHNTIICARAGKDLVSSLTSGLLTIGDRFGGALDAAAKMFSKAFDSGIIPMEFVNKMKKEGKLIMGIGHRVKSINNPDMRVQILKDFVKQHFPATPLLDYALEVEKITTSKKPNLILNVDGFIGVAFVDMLRNCGSFTREEADEYVDIGALNGIFVLGRSMGFIGHYLDQKRLKQGLYRHPWDDISYVLPEHMSM

Target: Capicua (CIC) (mouse (endogenous in P1 and P0.5 brain)) (UniProt Q924A2)
Assay: affinity purification with mass spectrometry

binding, binds:
ARID1A (from UniProt A2BH40 1-2283)
ARID1B (from UniProt E9Q4N7 1-2306)
BRG1 (SMARCA4) (from UniProt Q3TKT4 1-1613)
SMARCA2 (BAF190B, BRM) (from UniProt Q6DIC0 1-1577)
SMARCC1 (BAF155) (from UniProt P97496 1-1104)
SVIL, an actin-binding protein encoded by supervillin gene (from UniProt Q8K4L3 1-2170)
B1
